Data as given in paper PMC7819943, “Rice protein-binding microarrays: a tool to detect cis-acting elements near promoter regions in rice”.
The other results are listed elsewhere or left out.

Target: T1, OsSMF1 (Oryza sativa, UniProt Q6ZLB0 1-436)
T1 sequence: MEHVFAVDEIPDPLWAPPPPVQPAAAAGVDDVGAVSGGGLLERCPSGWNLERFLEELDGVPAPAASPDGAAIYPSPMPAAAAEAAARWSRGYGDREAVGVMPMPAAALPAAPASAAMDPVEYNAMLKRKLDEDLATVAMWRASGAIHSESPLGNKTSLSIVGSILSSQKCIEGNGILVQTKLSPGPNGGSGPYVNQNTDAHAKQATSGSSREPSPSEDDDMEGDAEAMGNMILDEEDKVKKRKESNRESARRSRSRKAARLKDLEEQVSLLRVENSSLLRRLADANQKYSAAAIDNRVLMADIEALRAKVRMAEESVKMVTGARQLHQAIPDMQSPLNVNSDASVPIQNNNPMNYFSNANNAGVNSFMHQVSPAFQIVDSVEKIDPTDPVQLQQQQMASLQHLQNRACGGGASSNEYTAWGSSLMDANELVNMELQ
Test: protein-binding microarray (RPBM); PBS, 2% BSA, 51.3 ng/ul salmon testes DNA, 50 uM zinc acetate, 200 nM TF, 25 C, 1 h; high values mean tight binding
Details: protein: recombinant; tags: N-terminal polyhistidine and DsRed monomer fusion (pET32a); chain copies: 2; label: CyDye5-dUTP incorporated in the synthesized complementary strand; 3' TTTTT single-stranded linker to array surface; dsDNA, one strand shown
Summary of the method: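 A custom Agilent array was converted to double-stranded form by primer extension with Cy5-dUTP and blocked with 2% BSA. Protein at 200 nM in PBS with 2% BSA, salmon testes DNA and 50 µM zinc acetate was applied for 1 h at 25 °C, followed by washing. The proteins were polyhistidine–DsRed N-terminal fusions of transcription factors, expressed in E. coli BL21-CodonPlus and Ni–NTA-purified. The binding signal is per-feature fluorescence intensity (arbitrary units) from an Axon 4000B scanner.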

Sequence | binding signal
CGCTGCTGCCGTCACAGAAGGTGCTGACATGGCCTGGGGTCGGAGTCACCTAGTGCAG | 7520 fluorescence intensity (a.u.)
GAGAATAAACACGTGGCCAACTAACTTCATTACACAGTTTCGGAGTCACCTAGTGCAG | 8420 fluorescence intensity (a.u.)
CATCCATCCCACCACTCACCCATCCCTCCCAGTATAAGCCCGGAGTCACCTAGTGCAG | 3570 fluorescence intensity (a.u.)
TAACATTAGACTATATGAAACAACTTTCGGTCAATATCTACGGAGTCACCTAGTGCAG | 3380 fluorescence intensity (a.u.)
CGGAGGGGTTCATCTCGGCGAAGACGTGGTCGGCCGTCCGCGGAGTCACCTAGTGCAG | 4120 fluorescence intensity (a.u.)
AAAAGAAAAGAAAATAACACGTCATGTCCATGTAGCATATCGGAGTCACCTAGTGCAG | 20200 fluorescence intensity (a.u.)
AGGTACCTCCACGTACATATTTGCCCATGAGCTGGTACCGCGGAGTCACCTAGTGCAG | 4760 fluorescence intensity (a.u.)
TGGGAGTCCCATGTGTTGCGTATTACTCCTACTTGTGTGCCGGAGTCACCTAGTGCAG | 3210 fluorescence intensity (a.u.)
CACATTTCATCTTATTATCCAATGCGCTGCAATTTCATGCCGGAGTCACCTAGTGCAG | 29100 fluorescence intensity (a.u.)
ATTATGCCCCTTATTACATTTCAGCCTACAGCGATCTACCCGGAGTCACCTAGTGCAG | 3280 fluorescence intensity (a.u.)
TGAGCTTCACGTAGATCTCATCGTCGTTGTCCACCACGTCCGGAGTCACCTAGTGCAG | 3750 fluorescence intensity (a.u.)
CGTCTCATGCACGGGGTGAAAGCACGATGACGAGCCACGGCGGAGTCACCTAGTGCAG | 4110 fluorescence intensity (a.u.)
GATGGAGAGGAGAGAGTAGTGAGTATGACATGTAGGGCTGCGGAGTCACCTAGTGCAG | 5390 fluorescence intensity (a.u.)
GATGATGACAAACATGTTAGCGCCGTCCCTCTAGCCTCCTCGGAGTCACCTAGTGCAG | 3520 fluorescence intensity (a.u.)
AAATGTCAAGTTGCATCACATCGTCGTCATTGACACTATTCGGAGTCACCTAGTGCAG | 5790 fluorescence intensity (a.u.)
AACACCGCCGTCTCCGTGGCCACCGCCGCCGCCGCCGCTCCGGAGTCACCTAGTGCAG | 3840 fluorescence intensity (a.u.)
TTTATTACACAACGCAACTGGCCAGACTTTAGCGGGTCATCGGAGTCACCTAGTGCAG | 46000 fluorescence intensity (a.u.)
AGCTGGTGATGAGCAGCGTCACCAATTCTTCCTGGACGCCCGGAGTCACCTAGTGCAG | 4190 fluorescence intensity (a.u.)
AACTTATATAGTTAAATGATGAAATTGATGACACAGGCAACGGAGTCACCTAGTGCAG | 3570 fluorescence intensity (a.u.)
TACTCGTAGTATCATTATTCTGTCGTGTGCTCCATGGAAACGGAGTCACCTAGTGCAG | 3870 fluorescence intensity (a.u.)
CTTTAGAAAAGAATTTCCCATAATGACTATGAATGCTTGTCGGAGTCACCTAGTGCAG | 3820 fluorescence intensity (a.u.)

Some of the entries above in a different format:
GATGATGACAAACATGTTAGCGCCGTCCCTCTAGCCTCCTCGGAGTCACCTAGTGCAG
  binding signal = 3520 fluorescence intensity (a.u.)
AAATGTCAAGTTGCATCACATCGTCGTCATTGACACTATTCGGAGTCACCTAGTGCAG
  binding signal = 5790 fluorescence intensity (a.u.)

Later entries.

Sequence | binding signal
CCGTCTTTGATGATGATGACGAGGACGACTGTGGAATGCCCGGAGTCACCTAGTGCAG | 6440 fluorescence intensity (a.u.)
TCCTTCCCTGCGCTGCACTGCACTGCACGCTCTCTCACGCCGGAGTCACCTAGTGCAG | 18700 fluorescence intensity (a.u.)
TACAAATGCTTTCCAGATTTAATTAAGAAGCTTACATAGTCGGAGTCACCTAGTGCAG | 4120 fluorescence intensity (a.u.)
AGTAATTAGCCACACTGCATATTAGCCACGACACCACAAGCGGAGTCACCTAGTGCAG | 3850 fluorescence intensity (a.u.)
ATGGCTGATGTGTTTTACCGATGGTTGATGTGTTTTACTGCGGAGTCACCTAGTGCAG | 4440 fluorescence intensity (a.u.)
TATATGAAATTATTATTTGATTTCTTGATCATATAATGTACGGAGTCACCTAGTGCAG | 3440 fluorescence intensity (a.u.)
GCTTCGCCTCGGCCGCGCGCGTGGGTTGGCGCCGTGGCAGCGGAGTCACCTAGTGCAG | 4360 fluorescence intensity (a.u.)
TAAATAAATCTGATACCTCAAATAAATAAGTCAAACCAGTCGGAGTCACCTAGTGCAG | 4110 fluorescence intensity (a.u.)
TTCATCAGATGAAGCTGATGGCGTCCTCTAGCTGACAGGTCGGAGTCACCTAGTGCAG | 3330 fluorescence intensity (a.u.)
GCTCCTGTCTGATTCTGTTACATGTCTTGCTTGGCCAGAGCGGAGTCACCTAGTGCAG | 3440 fluorescence intensity (a.u.)
GCGGGGCCGAGCGGCTGCGTGGCAGGGCAGCGGGGCCGGGCGGAGTCACCTAGTGCAG | 3330 fluorescence intensity (a.u.)
TATCAAAGCAGGCAGAGGTGTGCTACGTCACTGTACTTGTCGGAGTCACCTAGTGCAG | 4960 fluorescence intensity (a.u.)
GGAATTAGCTTGCATCGCTGTTGTCGTCGTGGTCTTCTCTCGGAGTCACCTAGTGCAG | 3620 fluorescence intensity (a.u.)
GGCGCCACGACGGCCGACCTCTTCGCCATGGCCACCGGTGCGGAGTCACCTAGTGCAG | 3680 fluorescence intensity (a.u.)
CCAAGGCCCGGTACTTTCCTAGCCAGCTGGCAGCCTCCAACGGAGTCACCTAGTGCAG | 5390 fluorescence intensity (a.u.)
TCCTCTCCGTACGTCATCGCTGGTTCCTCTCCTCTCCCCACGGAGTCACCTAGTGCAG | 16800 fluorescence intensity (a.u.)
TATTCTTGCATCTGTTGATCATGGTGGAGCTGTGCATCTACGGAGTCACCTAGTGCAG | 3360 fluorescence intensity (a.u.)
CCATTCCTCCATCCTGCCGTTGCCACGTTCCCGTGTCGTTCGGAGTCACCTAGTGCAG | 4280 fluorescence intensity (a.u.)
CTCTGTCTGCTGCCCGGGGCTCCTCCACGCCGGCGTCCTCCGGAGTCACCTAGTGCAG | 3390 fluorescence intensity (a.u.)
ATTCCGAGGTACTTTGGTTGTTTTAGATTAGTCATAAGCTCGGAGTCACCTAGTGCAG | 3730 fluorescence intensity (a.u.)
AGATCCGAGATGAATTCGTACCACAACTACGTACTGACCCCGGAGTCACCTAGTGCAG | 4480 fluorescence intensity (a.u.)
